These are yes or no findings as the source states them, for the method shown. Some entries that bind do so weakly or less than the wild type.
Assays:
[1] = target: human TSLP on human TSLP-expressing cells (Baf3-hu-TSLP-3G11, Huabo Biopharm) (human) (UniProt Q969D9); assay: flow cytometry on Baf3-hu-TSLP-3G11 cells
[2] = target: human TSLP with His tag (ACRO, TSP-H52Ha) (human) (UniProt Q969D9); assay: SPR

Amino acid sequences for entries named in this document (tags omitted). Residues count along the entry.
UniProt Q969D9, residues 29-159: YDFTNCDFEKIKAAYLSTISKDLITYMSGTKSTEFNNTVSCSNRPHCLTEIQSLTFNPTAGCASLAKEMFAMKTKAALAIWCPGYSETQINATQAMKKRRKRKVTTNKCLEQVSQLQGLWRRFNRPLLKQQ

B1: 900792-huH2L2 (antibody, human IgG1, kappa, L234A L235A, V domains shown)
VH: QVQLVQSGAEVKKPGASVKVSCKASGYAFTNYLIEWVRQAPGQGLEWMGIINPESGDTYYAQKFQGRVTMTADKSTSTAYMELSSLRSEDSAVYFCAKESLTGSSYDYWGQGTTLTVSS
VL: DIQMTQSPSSLSASVGDRVTITCRASENIYSNLVWYQQKPGKAPQLLVYGARNLQSGVPSRFSGSGSGTQFSLTISSLQPEDFATYYCQHFYETPLTFGTGTKLEIKR
notes: Humanized
binding [1]: binds | binding [2]: binds

B2: 900792-huH1L1 (antibody, human IgG1, kappa, L234A L235A, V domains shown)
VH: QVQLQQSGAEVKKPGASVKVSCKASGYAFTNYLIEWVRQAPGQGLEWIGVINPESGDTYYSEKFQGRVTLTADKSTSTAYMELSSLRSEDSAVYFCAKESLTGSSYDYWGQGTTLTVSS
VL: DIQMTQSPSSLSASVGDRVTITCRASENIYSNLVWYQQKPGKAPQLLVYGARNLADGVPSRFSGSGSGTQFSLTISSLQPEDFATYYCQHFYETPLTFGTGTKLEIKR
notes: Humanized
binding [1]: binds | binding [2]: binds

B3: 900792-huH1L2 (antibody, human IgG1, kappa, L234A L235A, V domains shown)
VH: QVQLQQSGAEVKKPGASVKVSCKASGYAFTNYLIEWVRQAPGQGLEWIGVINPESGDTYYSEKFQGRVTLTADKSTSTAYMELSSLRSEDSAVYFCAKESLTGSSYDYWGQGTTLTVSS
VL: DIQMTQSPSSLSASVGDRVTITCRASENIYSNLVWYQQKPGKAPQLLVYGARNLQSGVPSRFSGSGSGTQFSLTISSLQPEDFATYYCQHFYETPLTFGTGTKLEIKR
notes: Humanized
binding [1]: binds | binding [2]: binds

B4: 900792-huH1L3 (antibody, human IgG1, kappa, L234A L235A, V domains shown)
VH: QVQLQQSGAEVKKPGASVKVSCKASGYAFTNYLIEWVRQAPGQGLEWIGVINPESGDTYYSEKFQGRVTLTADKSTSTAYMELSSLRSEDSAVYFCAKESLTGSSYDYWGQGTTLTVSS
VL: DIQMTQSPSSLSASVGDRVTITCRASENIYSNLVWYQQKPGKAPQLLIYGARNLQSGVPSRFSGSGSGTQFTLTISSLQPEDFATYYCQHFYETPLTFGTGTKLEIKR
notes: Humanized
binding [1]: binds | binding [2]: binds

B5: 900792-huH2L1 (antibody, human IgG1, kappa, L234A L235A, V domains shown)
VH: QVQLVQSGAEVKKPGASVKVSCKASGYAFTNYLIEWVRQAPGQGLEWMGIINPESGDTYYAQKFQGRVTMTADKSTSTAYMELSSLRSEDSAVYFCAKESLTGSSYDYWGQGTTLTVSS
VL: DIQMTQSPSSLSASVGDRVTITCRASENIYSNLVWYQQKPGKAPQLLVYGARNLADGVPSRFSGSGSGTQFSLTISSLQPEDFATYYCQHFYETPLTFGTGTKLEIKR
notes: Humanized
binding [1]: binds | binding [2]: binds

B6: 900792-huH2L3 (antibody, human IgG1, kappa, L234A L235A, V domains shown)
VH: QVQLVQSGAEVKKPGASVKVSCKASGYAFTNYLIEWVRQAPGQGLEWMGIINPESGDTYYAQKFQGRVTMTADKSTSTAYMELSSLRSEDSAVYFCAKESLTGSSYDYWGQGTTLTVSS
VL: DIQMTQSPSSLSASVGDRVTITCRASENIYSNLVWYQQKPGKAPQLLIYGARNLQSGVPSRFSGSGSGTQFTLTISSLQPEDFATYYCQHFYETPLTFGTGTKLEIKR
notes: Humanized
binding [1]: binds | binding [2]: binds

B7: 900792-huH3L1 (antibody, human IgG1, kappa, L234A L235A, V domains shown)
VH: QVQLQQSGAEVKKPGASVKVSCKASGYAFTNYLIEWVRQAPGQGLEWMGVINPESGDTYYSQKFQGRVTMTADKSTSTAYMELSSLRSEDSAVYFCAKESLTGSSYDYWGQGTTLTVSS
VL: DIQMTQSPSSLSASVGDRVTITCRASENIYSNLVWYQQKPGKAPQLLVYGARNLADGVPSRFSGSGSGTQFSLTISSLQPEDFATYYCQHFYETPLTFGTGTKLEIKR
notes: Humanized
binding [1]: binds | binding [2]: binds

B8: 900792-huH3L2 (antibody, human IgG1, kappa, L234A L235A, V domains shown)
VH: QVQLQQSGAEVKKPGASVKVSCKASGYAFTNYLIEWVRQAPGQGLEWMGVINPESGDTYYSQKFQGRVTMTADKSTSTAYMELSSLRSEDSAVYFCAKESLTGSSYDYWGQGTTLTVSS
VL: DIQMTQSPSSLSASVGDRVTITCRASENIYSNLVWYQQKPGKAPQLLVYGARNLQSGVPSRFSGSGSGTQFSLTISSLQPEDFATYYCQHFYETPLTFGTGTKLEIKR
notes: Humanized
binding [1]: binds | binding [2]: binds

B9: 900792-huH3L3 (antibody, human IgG1, kappa, L234A L235A, V domains shown)
VH: QVQLQQSGAEVKKPGASVKVSCKASGYAFTNYLIEWVRQAPGQGLEWMGVINPESGDTYYSQKFQGRVTMTADKSTSTAYMELSSLRSEDSAVYFCAKESLTGSSYDYWGQGTTLTVSS
VL: DIQMTQSPSSLSASVGDRVTITCRASENIYSNLVWYQQKPGKAPQLLIYGARNLQSGVPSRFSGSGSGTQFTLTISSLQPEDFATYYCQHFYETPLTFGTGTKLEIKR
notes: Humanized
binding [1]: binds | binding [2]: binds

B10: 900792-huH4L1 (antibody, human IgG1, kappa, L234A L235A, V domains shown)
VH: QVQLVQSGAEVKKPGASVKVSCKASGYAFTNYLIEWVRQAPGQGLEWMGIINPESGDTYYAQKFQGRVTLTADKSTSTAYMELSSLRSEDSAVYYCAKESLTGSSYDYWGQGTTLTVSS
VL: DIQMTQSPSSLSASVGDRVTITCRASENIYSNLVWYQQKPGKAPQLLVYGARNLADGVPSRFSGSGSGTQFSLTISSLQPEDFATYYCQHFYETPLTFGTGTKLEIKR
notes: Humanized
binding [1]: binds | binding [2]: binds

B11: 900792-huH4L2 (antibody, human IgG1, kappa, L234A L235A, V domains shown)
VH: QVQLVQSGAEVKKPGASVKVSCKASGYAFTNYLIEWVRQAPGQGLEWMGIINPESGDTYYAQKFQGRVTLTADKSTSTAYMELSSLRSEDSAVYYCAKESLTGSSYDYWGQGTTLTVSS
VL: DIQMTQSPSSLSASVGDRVTITCRASENIYSNLVWYQQKPGKAPQLLVYGARNLQSGVPSRFSGSGSGTQFSLTISSLQPEDFATYYCQHFYETPLTFGTGTKLEIKR
notes: Humanized
binding [1]: binds | binding [2]: binds

B12: 900792-huH4L3 (antibody, human IgG1, kappa, L234A L235A, V domains shown)
VH: QVQLVQSGAEVKKPGASVKVSCKASGYAFTNYLIEWVRQAPGQGLEWMGIINPESGDTYYAQKFQGRVTLTADKSTSTAYMELSSLRSEDSAVYYCAKESLTGSSYDYWGQGTTLTVSS
VL: DIQMTQSPSSLSASVGDRVTITCRASENIYSNLVWYQQKPGKAPQLLIYGARNLQSGVPSRFSGSGSGTQFTLTISSLQPEDFATYYCQHFYETPLTFGTGTKLEIKR
notes: Humanized
binding [1]: binds | binding [2]: binds

B13: 900792 chimera (antibody, human IgG1, kappa, L234A L235A, V domains shown)
VH: QVQLQQSGAELVRPGTSVKVSCKASGYAFTNYLIEWVKQRPGQGLEWIGVINPESGDTYYSEKFKGKATLTADKSSSTAYMQLSSLTSEDSAVYFCAKESLTGSSYDYWGQGTTLTVSS
VL: DIQMTQSPASLSASVGESVTITCRASENIYSNLVWYQQKQGKSPQLLVYGARNLADGVPSRFSGSGSGTQFSLKINSLQPEDFGNYYCQHFYETPLTFGTGTKLEIKR
notes: Human-mouse chimera of clone 77E6; human IgG1 constant region with L234A and L235A (Eu), human kappa
binding [1]: binds
